Test [1] deals with T1, V. cholerae Cap2-3×FLAG (V. cholerae) (UniProt Q9KVG6).
T1 sequence: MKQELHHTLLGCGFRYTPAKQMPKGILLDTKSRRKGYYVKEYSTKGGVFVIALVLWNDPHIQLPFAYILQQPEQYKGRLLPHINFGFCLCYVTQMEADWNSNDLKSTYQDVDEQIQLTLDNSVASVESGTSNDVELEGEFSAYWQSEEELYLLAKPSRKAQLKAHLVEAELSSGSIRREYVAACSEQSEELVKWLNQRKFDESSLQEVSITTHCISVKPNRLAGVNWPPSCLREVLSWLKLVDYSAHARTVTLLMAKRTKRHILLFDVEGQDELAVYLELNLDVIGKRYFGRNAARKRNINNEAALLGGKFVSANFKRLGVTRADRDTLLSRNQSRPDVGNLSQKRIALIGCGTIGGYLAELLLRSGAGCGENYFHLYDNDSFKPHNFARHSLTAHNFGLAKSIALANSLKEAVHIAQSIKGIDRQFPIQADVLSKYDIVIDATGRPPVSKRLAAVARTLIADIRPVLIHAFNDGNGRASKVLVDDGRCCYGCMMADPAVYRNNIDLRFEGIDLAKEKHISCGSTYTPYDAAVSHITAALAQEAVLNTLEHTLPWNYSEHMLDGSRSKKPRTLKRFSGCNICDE
Put plainly: co-IP.

Sequences of proteins named here, by UniProt entry; tags and fusion partners are left off.
UniProt Q9KVG7: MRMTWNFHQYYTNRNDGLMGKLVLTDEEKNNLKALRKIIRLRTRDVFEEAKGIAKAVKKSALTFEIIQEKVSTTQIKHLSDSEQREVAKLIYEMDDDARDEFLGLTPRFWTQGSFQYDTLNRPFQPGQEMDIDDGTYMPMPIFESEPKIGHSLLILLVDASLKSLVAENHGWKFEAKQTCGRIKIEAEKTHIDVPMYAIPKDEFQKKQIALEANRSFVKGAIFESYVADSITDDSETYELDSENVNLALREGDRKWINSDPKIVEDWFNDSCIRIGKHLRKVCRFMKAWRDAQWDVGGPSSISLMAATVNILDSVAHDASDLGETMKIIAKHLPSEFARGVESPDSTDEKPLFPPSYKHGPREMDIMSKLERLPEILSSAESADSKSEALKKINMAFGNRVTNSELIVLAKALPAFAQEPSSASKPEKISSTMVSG

The target in test [2] is V. cholerae cGAS (DncV) (V. cholerae) (UniProt Q9KVG7). Put plainly: co-IP.

Results are given in words; binding and its absence hold for the method and conditions named. In cells and extracts the contact can be indirect. Some binding calls cover weakened binding; strength is not graded here. Where a sequence is shown, tags or fusion partners need not be part of it.

Regarding “V. cholerae cGAS (DncV) (from UniProt Q9KVG7 1-436) (enzyme)”, the binding entry in test [1] is “binds”.

B1: V. cholerae Cap2-3×FLAG (enzyme, UniProt Q9KVG6 1-584)
chain: T1 sequence
On to B1, for which the binding result in test [2] was “binds”.

For the origin of these results see publication doi:10.1101/2022.03.31.486616.
